Some of the results follow. Small differences around the control level are noise.

Sequences of proteins named here, by UniProt entry; tags and fusion partners are left off. A change or cut given only in a name is not applied to a line headed by its entry.
UniProt P0AG16: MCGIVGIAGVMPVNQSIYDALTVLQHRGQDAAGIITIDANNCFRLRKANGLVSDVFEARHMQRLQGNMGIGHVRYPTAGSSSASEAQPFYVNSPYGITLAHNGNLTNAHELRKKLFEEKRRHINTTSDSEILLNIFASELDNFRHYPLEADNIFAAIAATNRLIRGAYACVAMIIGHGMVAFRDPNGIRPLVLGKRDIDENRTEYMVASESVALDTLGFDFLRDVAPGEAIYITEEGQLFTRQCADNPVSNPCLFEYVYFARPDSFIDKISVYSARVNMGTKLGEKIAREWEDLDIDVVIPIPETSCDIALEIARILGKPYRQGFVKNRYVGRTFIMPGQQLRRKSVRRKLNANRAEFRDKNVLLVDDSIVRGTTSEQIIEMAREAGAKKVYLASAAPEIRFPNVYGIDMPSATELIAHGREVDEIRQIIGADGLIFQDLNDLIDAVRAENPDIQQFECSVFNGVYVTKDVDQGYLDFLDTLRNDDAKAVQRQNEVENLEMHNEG
UniProt P0ADP0: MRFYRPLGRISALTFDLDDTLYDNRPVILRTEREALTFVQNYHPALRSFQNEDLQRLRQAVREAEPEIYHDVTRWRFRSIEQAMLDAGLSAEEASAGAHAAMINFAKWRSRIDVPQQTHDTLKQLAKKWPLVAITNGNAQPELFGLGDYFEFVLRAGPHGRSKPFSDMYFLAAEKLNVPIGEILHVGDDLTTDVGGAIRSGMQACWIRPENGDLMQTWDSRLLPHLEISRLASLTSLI
UniProt P0AD57: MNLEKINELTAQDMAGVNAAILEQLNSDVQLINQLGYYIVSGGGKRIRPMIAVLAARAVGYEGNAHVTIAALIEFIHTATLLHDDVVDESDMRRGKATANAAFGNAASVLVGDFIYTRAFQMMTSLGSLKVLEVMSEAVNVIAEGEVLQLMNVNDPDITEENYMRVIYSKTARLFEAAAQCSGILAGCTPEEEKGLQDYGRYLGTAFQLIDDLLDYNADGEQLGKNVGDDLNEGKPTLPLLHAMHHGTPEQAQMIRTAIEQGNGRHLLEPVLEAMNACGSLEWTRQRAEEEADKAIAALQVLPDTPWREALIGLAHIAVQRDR
UniProt P0ADV7: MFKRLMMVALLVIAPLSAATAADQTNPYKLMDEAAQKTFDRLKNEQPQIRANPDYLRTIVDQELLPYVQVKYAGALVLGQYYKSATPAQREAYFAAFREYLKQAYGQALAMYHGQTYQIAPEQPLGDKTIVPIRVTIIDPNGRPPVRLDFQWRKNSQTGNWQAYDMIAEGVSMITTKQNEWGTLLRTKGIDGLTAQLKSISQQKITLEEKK
UniProt P0AEJ4: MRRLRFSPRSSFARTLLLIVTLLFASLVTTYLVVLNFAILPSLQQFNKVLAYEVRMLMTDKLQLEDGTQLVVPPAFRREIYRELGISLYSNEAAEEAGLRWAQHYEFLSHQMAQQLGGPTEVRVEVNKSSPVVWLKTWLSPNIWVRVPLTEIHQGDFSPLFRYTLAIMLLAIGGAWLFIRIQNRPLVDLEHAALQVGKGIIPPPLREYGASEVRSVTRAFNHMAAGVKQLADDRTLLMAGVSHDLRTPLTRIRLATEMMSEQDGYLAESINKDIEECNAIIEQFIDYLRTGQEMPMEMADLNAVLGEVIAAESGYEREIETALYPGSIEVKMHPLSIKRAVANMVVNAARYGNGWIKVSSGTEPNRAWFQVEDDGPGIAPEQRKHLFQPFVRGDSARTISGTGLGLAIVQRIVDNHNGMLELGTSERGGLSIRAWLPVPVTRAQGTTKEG
UniProt P0AFU6: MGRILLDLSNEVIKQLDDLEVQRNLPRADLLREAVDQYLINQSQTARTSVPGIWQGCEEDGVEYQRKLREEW
UniProt P0ADX7: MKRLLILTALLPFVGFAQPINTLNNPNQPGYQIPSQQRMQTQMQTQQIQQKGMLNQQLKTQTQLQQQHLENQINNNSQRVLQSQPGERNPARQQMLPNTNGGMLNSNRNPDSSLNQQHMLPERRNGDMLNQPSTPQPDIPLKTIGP
UniProt P0AEG4: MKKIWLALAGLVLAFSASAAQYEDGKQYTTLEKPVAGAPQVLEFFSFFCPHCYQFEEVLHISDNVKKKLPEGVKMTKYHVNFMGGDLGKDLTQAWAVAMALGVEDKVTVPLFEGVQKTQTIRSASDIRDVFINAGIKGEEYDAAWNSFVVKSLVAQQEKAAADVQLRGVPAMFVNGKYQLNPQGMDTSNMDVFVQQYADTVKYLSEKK
UniProt P0AG82: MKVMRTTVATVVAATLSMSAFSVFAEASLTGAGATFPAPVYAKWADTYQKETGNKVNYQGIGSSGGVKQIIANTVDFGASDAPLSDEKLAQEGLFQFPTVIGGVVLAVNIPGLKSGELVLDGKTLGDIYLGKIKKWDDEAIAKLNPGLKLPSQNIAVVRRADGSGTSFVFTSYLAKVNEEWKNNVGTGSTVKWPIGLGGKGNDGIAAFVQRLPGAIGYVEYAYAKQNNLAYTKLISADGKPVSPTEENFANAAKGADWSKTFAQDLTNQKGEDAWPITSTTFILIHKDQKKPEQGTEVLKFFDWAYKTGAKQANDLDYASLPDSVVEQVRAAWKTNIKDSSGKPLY
UniProt P0ADJ3: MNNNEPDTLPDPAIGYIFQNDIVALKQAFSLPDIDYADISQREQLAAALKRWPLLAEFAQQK
UniProt P0AFU4: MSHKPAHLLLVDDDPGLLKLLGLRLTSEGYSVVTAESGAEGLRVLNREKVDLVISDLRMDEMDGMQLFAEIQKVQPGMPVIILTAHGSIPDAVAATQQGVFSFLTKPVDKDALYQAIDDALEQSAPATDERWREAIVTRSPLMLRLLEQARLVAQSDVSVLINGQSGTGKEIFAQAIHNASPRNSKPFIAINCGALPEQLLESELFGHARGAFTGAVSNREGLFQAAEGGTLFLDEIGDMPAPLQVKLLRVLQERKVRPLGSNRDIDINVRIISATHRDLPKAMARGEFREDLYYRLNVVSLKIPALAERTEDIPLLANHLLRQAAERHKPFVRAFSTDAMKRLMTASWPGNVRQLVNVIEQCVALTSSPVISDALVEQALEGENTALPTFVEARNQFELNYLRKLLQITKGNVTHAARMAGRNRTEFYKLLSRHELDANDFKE
UniProt P0AEH3: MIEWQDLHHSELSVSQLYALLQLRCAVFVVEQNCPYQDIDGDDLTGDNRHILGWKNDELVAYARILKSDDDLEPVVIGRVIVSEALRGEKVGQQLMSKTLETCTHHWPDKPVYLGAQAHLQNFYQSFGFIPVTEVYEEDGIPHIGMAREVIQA

Compound in this assay: CC1(C)S[C@@H]2[C@H](NC(=O)[C@H](N)c3ccccc3)C(=O)N2[C@H]1C(=O)O [ampicillin]
Briefly: log2 fold change of tryptic peptide abundance, ligand vs vehicle (limited proteolysis) (log2 ratio); higher = more trypsin-susceptible (destabilized). To be noted: ligand concentration: 10 uM; sample: E. coli crude lysate.
Turning to “UniProt P0AG16 (peptide sequence: LQGNMGIGHVR, peptide start residue: 64)”, the log2 fold change was 0.344. To “UniProt P0ADP0 (peptide sequence: EAEPEIYHDVTR, peptide start residue: 63)” belongs 0.0926. To “UniProt P0AD57 (peptide sequence: QRAEEEADK, peptide start residue: 286)” belongs -0.459. Take “UniProt P0ADV7 (peptide sequence: YAGALVLGQYYK, peptide start residue: 72)”: the log2 fold change came out at 0.582. To “UniProt P0AEJ4 (peptide sequence: AFNHMAAGVK, peptide start residue: 219)” belongs -0.632; to “UniProt P0AFU6 (peptide sequence: ILLDLSNEVIK, peptide start residue: 4)”, 0.17. To “UniProt P0ADX7 (peptide sequence: NPDSSLNQQHMLPER, peptide start residue: 109)” belongs 0.0911. Next, “UniProt P0AEG4 (peptide sequence: KKLPEGVK, peptide start residue: 67)”: 0.382; “UniProt P0AG82 (peptide sequence: VNYQGIGSSGGVK, peptide start residue: 56)”: 0.199. On to “UniProt P0ADJ3 (peptide sequence: EQLAAALKR, peptide start residue: 43)”, for which the log2 fold change was -0.151. In the case of “UniProt P0AFU4 (peptide sequence: NQFELNYLR, peptide start residue: 396)”, the log2 fold change is -0.301. Next, “UniProt P0AEH3 (peptide sequence: HILGWKNDELVAYAR, peptide start residue: 50)”: -0.447.
